# Test results: PubChem BioAssay (EPA / NIEHS)
# Amino acid sequences for entries named in this document (tags omitted). A change or cut given only in a name is not applied to a line headed by its entry.
# UniProt P21728, whole entry, looked up: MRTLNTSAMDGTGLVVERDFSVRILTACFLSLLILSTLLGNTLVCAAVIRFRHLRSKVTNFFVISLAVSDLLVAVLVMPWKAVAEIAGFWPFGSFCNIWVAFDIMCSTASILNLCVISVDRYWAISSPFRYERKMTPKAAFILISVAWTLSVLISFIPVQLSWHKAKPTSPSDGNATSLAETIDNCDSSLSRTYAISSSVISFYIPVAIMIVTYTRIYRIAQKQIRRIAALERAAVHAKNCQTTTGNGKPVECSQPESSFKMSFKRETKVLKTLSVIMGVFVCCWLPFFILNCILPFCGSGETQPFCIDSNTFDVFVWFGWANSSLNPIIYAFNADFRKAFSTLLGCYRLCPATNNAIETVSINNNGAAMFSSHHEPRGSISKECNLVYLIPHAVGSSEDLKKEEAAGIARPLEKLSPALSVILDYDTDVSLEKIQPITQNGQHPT
# UniProt P19643, whole entry, looked up: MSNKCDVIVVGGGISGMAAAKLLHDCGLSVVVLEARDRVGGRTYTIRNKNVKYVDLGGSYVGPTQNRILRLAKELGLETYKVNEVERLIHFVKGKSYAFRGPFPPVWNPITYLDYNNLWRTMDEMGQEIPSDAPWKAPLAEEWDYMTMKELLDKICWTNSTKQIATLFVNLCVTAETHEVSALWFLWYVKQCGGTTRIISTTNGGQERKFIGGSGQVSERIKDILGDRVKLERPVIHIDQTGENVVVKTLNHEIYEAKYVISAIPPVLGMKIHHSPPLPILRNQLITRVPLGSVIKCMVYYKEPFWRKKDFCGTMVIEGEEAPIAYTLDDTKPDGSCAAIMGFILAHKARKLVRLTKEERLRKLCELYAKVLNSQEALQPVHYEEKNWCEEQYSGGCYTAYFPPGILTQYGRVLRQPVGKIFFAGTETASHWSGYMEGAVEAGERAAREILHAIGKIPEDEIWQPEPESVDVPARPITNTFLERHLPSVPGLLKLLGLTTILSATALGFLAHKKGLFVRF
# UniProt Q9NTG7: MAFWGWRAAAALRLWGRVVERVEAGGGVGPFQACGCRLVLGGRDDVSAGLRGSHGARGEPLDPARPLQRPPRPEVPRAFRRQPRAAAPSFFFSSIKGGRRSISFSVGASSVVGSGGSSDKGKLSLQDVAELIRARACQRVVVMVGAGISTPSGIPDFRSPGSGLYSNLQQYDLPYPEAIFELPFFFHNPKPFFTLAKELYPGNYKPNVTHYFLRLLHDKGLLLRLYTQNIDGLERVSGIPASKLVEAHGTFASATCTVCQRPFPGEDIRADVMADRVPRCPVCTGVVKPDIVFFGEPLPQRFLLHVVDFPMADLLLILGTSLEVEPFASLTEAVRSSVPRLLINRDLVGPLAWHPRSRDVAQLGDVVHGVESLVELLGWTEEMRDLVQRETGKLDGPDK
# UniProt P03372, whole entry, looked up: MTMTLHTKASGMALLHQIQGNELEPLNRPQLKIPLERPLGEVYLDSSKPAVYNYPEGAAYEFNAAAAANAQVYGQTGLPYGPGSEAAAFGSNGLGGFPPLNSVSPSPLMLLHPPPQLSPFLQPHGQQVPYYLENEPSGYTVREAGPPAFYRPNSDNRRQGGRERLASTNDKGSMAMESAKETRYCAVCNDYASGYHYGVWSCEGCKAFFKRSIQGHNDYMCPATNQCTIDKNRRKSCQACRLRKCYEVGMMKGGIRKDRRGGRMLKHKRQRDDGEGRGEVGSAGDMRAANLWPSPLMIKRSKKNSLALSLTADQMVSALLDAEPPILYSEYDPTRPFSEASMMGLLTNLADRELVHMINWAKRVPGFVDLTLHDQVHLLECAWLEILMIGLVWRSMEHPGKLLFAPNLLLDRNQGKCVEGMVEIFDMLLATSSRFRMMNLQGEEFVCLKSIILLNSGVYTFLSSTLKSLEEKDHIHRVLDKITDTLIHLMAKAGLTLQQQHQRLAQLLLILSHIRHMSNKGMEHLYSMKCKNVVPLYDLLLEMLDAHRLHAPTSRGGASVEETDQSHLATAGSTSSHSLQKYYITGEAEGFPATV
# UniProt P31751: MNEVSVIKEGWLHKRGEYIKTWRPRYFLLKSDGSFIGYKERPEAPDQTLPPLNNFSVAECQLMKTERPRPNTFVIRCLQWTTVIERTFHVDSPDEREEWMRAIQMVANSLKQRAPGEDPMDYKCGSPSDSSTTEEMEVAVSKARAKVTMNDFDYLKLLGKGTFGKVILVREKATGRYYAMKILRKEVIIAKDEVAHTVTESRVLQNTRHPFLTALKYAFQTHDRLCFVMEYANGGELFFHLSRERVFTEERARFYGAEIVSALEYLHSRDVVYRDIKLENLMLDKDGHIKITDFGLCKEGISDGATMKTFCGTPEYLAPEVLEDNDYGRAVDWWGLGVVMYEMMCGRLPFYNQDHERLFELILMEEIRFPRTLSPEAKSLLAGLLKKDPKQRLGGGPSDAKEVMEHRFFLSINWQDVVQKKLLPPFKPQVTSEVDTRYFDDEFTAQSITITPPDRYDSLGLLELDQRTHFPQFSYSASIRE
# UniProt P10275: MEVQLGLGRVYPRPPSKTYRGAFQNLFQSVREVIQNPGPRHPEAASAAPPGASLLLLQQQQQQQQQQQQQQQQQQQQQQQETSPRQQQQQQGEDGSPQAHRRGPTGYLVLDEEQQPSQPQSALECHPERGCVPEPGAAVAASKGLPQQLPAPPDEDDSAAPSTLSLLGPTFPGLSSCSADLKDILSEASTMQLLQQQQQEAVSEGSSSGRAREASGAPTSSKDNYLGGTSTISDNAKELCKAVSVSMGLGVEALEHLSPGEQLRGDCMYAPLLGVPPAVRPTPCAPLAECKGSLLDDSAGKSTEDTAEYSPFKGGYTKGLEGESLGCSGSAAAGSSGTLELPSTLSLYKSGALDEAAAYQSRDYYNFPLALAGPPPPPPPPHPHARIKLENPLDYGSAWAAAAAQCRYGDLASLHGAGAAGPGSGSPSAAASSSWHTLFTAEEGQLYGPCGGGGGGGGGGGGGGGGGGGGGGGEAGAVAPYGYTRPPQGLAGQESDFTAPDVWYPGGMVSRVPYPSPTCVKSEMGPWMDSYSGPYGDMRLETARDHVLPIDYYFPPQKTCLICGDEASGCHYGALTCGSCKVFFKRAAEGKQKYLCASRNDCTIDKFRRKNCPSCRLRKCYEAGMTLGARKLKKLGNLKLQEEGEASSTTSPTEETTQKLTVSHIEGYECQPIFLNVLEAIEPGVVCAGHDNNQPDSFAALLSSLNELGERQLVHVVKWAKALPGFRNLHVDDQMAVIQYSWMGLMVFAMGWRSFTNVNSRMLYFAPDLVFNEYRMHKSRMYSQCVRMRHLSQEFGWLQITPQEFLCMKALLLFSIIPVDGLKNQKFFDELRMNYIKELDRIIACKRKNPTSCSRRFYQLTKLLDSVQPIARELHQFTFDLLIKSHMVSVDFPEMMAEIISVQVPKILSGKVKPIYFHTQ
# UniProt Q9PVE4: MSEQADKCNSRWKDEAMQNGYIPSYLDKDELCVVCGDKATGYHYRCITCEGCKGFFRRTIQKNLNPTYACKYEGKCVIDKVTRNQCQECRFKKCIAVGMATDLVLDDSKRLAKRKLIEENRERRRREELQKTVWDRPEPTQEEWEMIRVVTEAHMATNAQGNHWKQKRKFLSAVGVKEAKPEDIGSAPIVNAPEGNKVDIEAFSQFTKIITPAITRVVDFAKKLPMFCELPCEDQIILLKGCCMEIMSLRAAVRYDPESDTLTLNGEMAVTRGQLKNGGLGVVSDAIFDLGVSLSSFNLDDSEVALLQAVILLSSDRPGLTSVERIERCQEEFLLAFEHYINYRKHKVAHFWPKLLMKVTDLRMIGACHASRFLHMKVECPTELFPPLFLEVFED
# UniProt P10828: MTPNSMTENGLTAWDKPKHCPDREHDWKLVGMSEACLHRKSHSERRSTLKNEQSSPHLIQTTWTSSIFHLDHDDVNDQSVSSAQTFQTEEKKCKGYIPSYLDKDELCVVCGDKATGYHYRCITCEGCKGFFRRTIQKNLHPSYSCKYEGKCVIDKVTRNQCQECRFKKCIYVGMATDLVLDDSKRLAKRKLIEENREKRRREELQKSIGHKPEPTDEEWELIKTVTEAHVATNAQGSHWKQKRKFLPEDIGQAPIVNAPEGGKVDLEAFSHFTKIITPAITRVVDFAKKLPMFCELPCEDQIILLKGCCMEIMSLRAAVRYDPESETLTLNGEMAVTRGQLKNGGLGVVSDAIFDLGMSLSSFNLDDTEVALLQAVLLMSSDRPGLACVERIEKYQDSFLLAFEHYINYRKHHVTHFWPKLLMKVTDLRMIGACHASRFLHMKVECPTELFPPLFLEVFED
# UniProt P57717: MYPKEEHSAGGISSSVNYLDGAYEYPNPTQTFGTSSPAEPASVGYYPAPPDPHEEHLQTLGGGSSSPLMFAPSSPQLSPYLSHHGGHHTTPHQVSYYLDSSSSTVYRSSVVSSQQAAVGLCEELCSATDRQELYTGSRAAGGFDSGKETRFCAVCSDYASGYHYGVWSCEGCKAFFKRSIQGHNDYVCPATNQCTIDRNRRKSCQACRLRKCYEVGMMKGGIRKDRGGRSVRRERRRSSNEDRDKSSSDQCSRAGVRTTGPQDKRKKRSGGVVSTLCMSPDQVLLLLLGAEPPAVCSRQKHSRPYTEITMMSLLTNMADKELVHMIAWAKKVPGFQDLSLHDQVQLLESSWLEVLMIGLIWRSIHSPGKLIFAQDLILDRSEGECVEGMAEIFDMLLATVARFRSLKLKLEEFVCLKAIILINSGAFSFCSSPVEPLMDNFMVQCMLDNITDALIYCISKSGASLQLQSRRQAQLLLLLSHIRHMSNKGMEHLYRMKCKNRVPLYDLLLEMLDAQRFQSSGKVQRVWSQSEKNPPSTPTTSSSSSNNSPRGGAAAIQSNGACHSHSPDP
# UniProt Q14994: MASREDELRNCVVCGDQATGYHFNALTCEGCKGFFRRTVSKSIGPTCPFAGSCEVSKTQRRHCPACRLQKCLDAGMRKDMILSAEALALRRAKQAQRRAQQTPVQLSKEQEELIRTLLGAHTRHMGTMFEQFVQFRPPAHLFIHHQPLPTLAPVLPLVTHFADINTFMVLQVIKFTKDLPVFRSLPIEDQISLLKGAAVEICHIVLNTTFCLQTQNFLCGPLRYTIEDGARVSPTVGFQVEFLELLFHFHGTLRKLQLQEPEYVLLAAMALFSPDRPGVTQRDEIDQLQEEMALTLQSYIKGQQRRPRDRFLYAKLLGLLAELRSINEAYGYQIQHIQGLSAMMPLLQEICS
# UniProt P08581: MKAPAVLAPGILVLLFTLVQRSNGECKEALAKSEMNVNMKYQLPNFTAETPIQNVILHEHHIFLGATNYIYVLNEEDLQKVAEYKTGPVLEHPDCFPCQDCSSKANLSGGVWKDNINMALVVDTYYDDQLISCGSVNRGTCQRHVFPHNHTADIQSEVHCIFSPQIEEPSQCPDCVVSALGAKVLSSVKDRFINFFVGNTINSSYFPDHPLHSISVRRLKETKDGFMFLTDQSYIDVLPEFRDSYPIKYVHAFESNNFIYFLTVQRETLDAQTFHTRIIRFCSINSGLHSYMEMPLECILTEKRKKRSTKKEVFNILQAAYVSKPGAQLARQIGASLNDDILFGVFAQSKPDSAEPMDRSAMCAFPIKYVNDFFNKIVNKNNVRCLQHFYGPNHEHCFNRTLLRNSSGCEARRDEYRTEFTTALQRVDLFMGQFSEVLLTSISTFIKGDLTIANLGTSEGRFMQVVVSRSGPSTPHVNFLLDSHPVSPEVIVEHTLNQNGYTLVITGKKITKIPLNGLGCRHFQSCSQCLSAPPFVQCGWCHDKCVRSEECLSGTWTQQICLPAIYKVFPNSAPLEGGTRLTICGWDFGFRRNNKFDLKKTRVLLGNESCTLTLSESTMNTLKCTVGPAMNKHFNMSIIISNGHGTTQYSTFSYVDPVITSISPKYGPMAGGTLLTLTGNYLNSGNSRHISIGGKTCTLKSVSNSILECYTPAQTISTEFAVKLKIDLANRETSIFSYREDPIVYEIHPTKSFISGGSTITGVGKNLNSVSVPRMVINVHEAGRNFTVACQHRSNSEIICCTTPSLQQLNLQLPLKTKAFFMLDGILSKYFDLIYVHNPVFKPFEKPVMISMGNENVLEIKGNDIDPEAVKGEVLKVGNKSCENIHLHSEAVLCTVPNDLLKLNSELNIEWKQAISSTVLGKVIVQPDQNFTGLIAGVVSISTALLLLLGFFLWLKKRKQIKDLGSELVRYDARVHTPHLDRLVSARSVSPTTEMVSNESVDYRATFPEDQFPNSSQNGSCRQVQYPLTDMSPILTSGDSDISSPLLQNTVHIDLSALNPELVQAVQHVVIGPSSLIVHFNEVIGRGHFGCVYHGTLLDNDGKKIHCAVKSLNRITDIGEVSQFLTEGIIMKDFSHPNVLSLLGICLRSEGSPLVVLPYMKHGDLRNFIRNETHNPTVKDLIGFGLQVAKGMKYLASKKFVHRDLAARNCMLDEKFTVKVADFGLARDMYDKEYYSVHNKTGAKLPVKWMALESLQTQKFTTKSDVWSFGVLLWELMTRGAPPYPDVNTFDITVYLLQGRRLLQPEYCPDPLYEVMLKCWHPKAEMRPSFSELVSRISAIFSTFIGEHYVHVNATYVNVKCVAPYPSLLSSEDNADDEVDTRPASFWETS
# Inconclusive means that the source gave no clear call. Such entries were picked first, then a sample of the others. For part of these data: Potencies beside an inconclusive call are fits to weak or partial responses and may not hold up. More than one record can exist for a structure, and the calls need not agree. Active and inactive are the calls of the source. The calls were made as follows: active = hit-call score of the fitted dose curve at least 0.9, where 1 is the maximum; inconclusive = response in the unintended direction; inactive = score below 0.9.
# Assays:
# [1] = Tanguay_ZF_120hpf_YSE_legacy: (Legacy) Oregon State University Tanguay Lab 120 Hour Post-fertilization zebrafish Assay for Yolk Sac Edema (AID 2283634);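 as to AC50: actives raise the incidence of yolk sac edema above the DMSO baseline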
# Summary of the method: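 Tropical 5D wild-type embryos, dechorionated with pronase at 4 hpf, were exposed singly from 6 hpf to 120 hpf under static, sealed, dark conditions at 28C with 0.64% DMSO final. Yolk sac edema was scored present/absent by brightfield microscopy.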
# [2] = target: D(1A) dopamine receptor (Homo sapiens) (UniProt P21728); assay: NVS_GPCR_hDRD1: NovaScreen (NVS) G Protein-Coupled Receptor Assay for human Dopamine Receptor D1 (DRD1) (AID 2283269)
# Summary of the method: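 Radioligand displacement binding on membranes/protein extracted from HEK293 expressing human D1, cell-free; read 1 h after dosing by filter-based scintillation counting. Primary screen in duplicate at 25 uM, actives followed up in concentration series; signal loss versus DMSO baseline.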
# [3] = target: rat Monoamine Oxidase, MAO-B, Central (MAOBC), Maob (gene 25750) (UniProt P19643); assay: NVS_ENZ_rMAOBC: NovaScreen (NVS) Enzymatic Assay for rat Monoamine Oxidase, MAO-B, Central (MAOBC) (AID 2283238)
# Summary of the method: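 Here MAO-B activity in rat brain preparations is quantified radiometrically, counts taken at 1.17 hours. Concentration-response runs reach 50 uM, with plate controls, and values are fitted as loss of signal from the DMSO baseline.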
# [4] = target: human Sirtuin 3 (SIRT3), SIRT3 (gene 23410) (UniProt Q9NTG7); assay: NVS_ENZ_hSIRT3: NovaScreen (NVS) Enzymatic Assay for human Sirtuin 3 (SIRT3) (AID 2283222)
# Summary of the method: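 Cell-free enzyme assay with recombinant protein and fluorescent substrate, product separated by electrophoretic mobility shift; read 1 hour after dosing. Screened in duplicate at 25 uM, then singleton concentration-response up to 50 uM; loss of signal versus DMSO.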
# [5] = target: Estrogen receptor (Homo sapiens) (UniProt P03372); assay: OT_ER_ERaERa_0480: Odyssey Thera (OT) 8-hour HEK293T Protein-Complementation Assay for Estrogen Receptor-alpha/-alpha Homodimer (AID 2283351);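 also: rise in fluorescence from reassembled reporter fragments on ERα LBD homodimer in nucleus or whole cell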
# Summary of the method: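 Measures ERα LBD (aa 310-547) homodimer complementation in stably transfected HEK293T at 8 h post-dose, with fluorescence intensity quantified on a laser scanning cytometer relative to DMSO controls.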
# [6] = target: human AKT serine/threonine Kinase 2 (AKT2), AKT2 (gene 208) (UniProt P31751); assay: NVS_ENZ_hAKT2: NovaScreen (NVS) Enzymatic Assay for human AKT serine/threonine Kinase 2 (AKT2) (AID 2283141)
# Summary of the method: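 Cell-free fluorescence/electrophoretic mobility shift readout of recombinant human AKT2 activity, 1 h after chemical dosing. Duplicate primary screen at 25 uM, then singleton concentration-response up to 50 uM; loss of signal versus DMSO baseline.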
# [7] = target: Agonist Androgen Response Element (ARE), AR (gene 367) (UniProt P10275); assay: OT_AR_ARELUC_AG_1440: Odyssey Thera (OT) 24-hour CHO-K1 Luciferase Assay for Agonist Androgen Response Element (ARE) (AID 2283379)
# Summary of the method: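 Luminescence increase above DMSO, read after a 24 h compound treatment of CHO-K1 cells expressing an androgen response element luciferase reporter, gives the single primary endpoint; concentration-response fitting used the positive direction.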
# [8] = test system: frog Estrogen Receptor (ER2), gene 100174814; assay: ATG_frER2_XSP2: Attagene TRANS-FACTORIAL Multi-Species (XSP2) HepG2 Assay for frog Estrogen Receptor (ER2) (AID 2283828)
# Summary of the method: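 Induction of reporter mRNA, baseline set by DMSO, is the endpoint. The panel was run in transfected HepG2 cells over 24 h, with 3 nM 6-alpha-fluorotestosterone and 1.5 nM norgestrel present to stimulate androgen receptor.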
# [9] = target: zebrafish Thyroid Hormone Receptor beta (TRb), thrb (gene 30607) (UniProt Q9PVE4); assay: ATG_zfTRb_XSP2: Attagene TRANS-FACTORIAL Multi-Species (XSP1) HepG2 Assay for zebrafish Thyroid Hormone Receptor beta (TRb) (AID 2283836);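 as to AC50: potency for induction of reporter signal above DMSO so agonist direction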
# Summary of the method: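 Multiplexed trans-activation in HepG2 cells, 24 h treatment, with reporter mRNA read by RT-PCR and capillary electrophoresis. Gain-of-signal against DMSO.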
# [10] = STM_H9_NormalizedViability: Cytotoxicity Assessment at 120 hours in the Stemina devTOX quickPredict H9 human embryonic stem cell (hESC)-based Assay (AID 2283784)
# Summary of the method: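 Here, H9 cells received test compound with daily medium renewal. Each plate included methotrexate references (1uM, 5 nM), 0.1% DMSO and media blanks; CellTiter-Fluor RFU was normalized to DMSO.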
# [11] = target: human Thyroid hormone Receptor beta (TRb), THRB (gene 7068) (UniProt P10828); assay: ATG_hTRb_XSP1: Attagene TRANS-FACTORIAL Multi-Species (XSP1) HepG2 Assay for human Thyroid hormone Receptor beta (TRb) (AID 2283808)
# Summary of the method: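 Readout is reporter mRNA induction measured by RT-PCR, fluorescent labelling and capillary electrophoresis, fitted upward relative to DMSO. Transiently transfected human HepG2 cells expressing NR-Gal4 chimeras were dosed for 24 h, medium containing 3 nM 6-alpha-fluorotestosterone.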
# [12] = test system: zebrafish Estrogen Receptor (ESR2A), gene 317734; assay: ATG_zfER2a_XSP1: Attagene TRANS-FACTORIAL Multi-Species (XSP1) HepG2 Assay for zebrafish Estrogen Receptor (ESR2A) (AID 2283778)
# Summary of the method: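 Gain-of-signal reporter transcription readout from GAL4-UAS units in transiently transfected HepG2 cells, 24 h exposure, 3 nM 6-alpha-fluorotestosterone co-present. Detection by RT-PCR with capillary electrophoresis fluorescence.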
# [13] = test system: turtle Thyroid Hormone Receptor, alpha (TRa), gene 101949057; assay: ATG_trTRa_XSP1: Attagene TRANS-FACTORIAL Multi-Species (XSP1) HepG2 Assay for turtle Thyroid Hormone Receptor, alpha (TRa) (AID 2283806)
# Summary of the method: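 After 24 h chemical exposure, reporter transcripts were measured by RT-PCR with fluorescent primer extension, HpaI digestion and capillary electrophoresis. Cells were transiently transfected HepG2 expressing exogenous NR-Gal4 chimeras; medium contained 3 nM 6-alpha-fluorotestosterone; fitted upward relative to DMSO.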
# [14] = CCTE_Shafer_MEA_dev_bursting_electrodes_number: CCTE's Neural Network Formation Assay for Number of Bursting Electrodes, Shafer Lab (AID 2284043);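 also: potency is for loss of bursting electrodes relative to DMSO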
# Summary of the method: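 Counted: electrodes with burst rate ≥1 per 2 min in each well. Cells: primary rat cortex, 1.5 x 10^5/well, on 16-electrode MEA wells. Exposure: DIV 0–12, compound renewed DIV 5 and 9. Recording days 5, 7, 9, 12; AUC vs DMSO baseline.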
# [15] = target: zebrafish Estrogen Receptor (ESR1), esr1 (gene 259252) (UniProt P57717); assay: ATG_zfER1_XSP1: Attagene TRANS-FACTORIAL Multi-Species (XSP1) HepG2 Assay for zebrafish Estrogen Receptor (ESR1) (AID 2283772)
# Summary of the method: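 HepG2 cells were transiently transfected with multiplexed GAL4-UAS reporter units driven by chimeric NR-GAL4 proteins, dosed for 24 h with 3 nM 6-alpha-fluorotestosterone present, and reporter mRNA quantified by RT-PCR and capillary electrophoresis versus DMSO.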
# [16] = test system: zebrafish Peroxisome Proliferator-activated Receptor gamma (PPARg), gene 557037; assay: ATG_zfPPARg_XSP1: Attagene TRANS-FACTORIAL Multi-Species (XSP1) HepG2 Assay for zebrafish Peroxisome Proliferator-activated Receptor gamma (PPARg) (AID 2283801)
# Summary of the method: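 Trans-activation readout of chimeric zebrafish PPARg–GAL4 in transiently transfected human HepG2 cells, 24 h chemical exposure (medium includes 3 nM 6-alpha-fluorotestosterone). Reporter transcripts measured by RT-PCR and capillary electrophoresis, fitted as gain over DMSO.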
# [17] = IUF_NPC4_neurite_area_120hr: Leibniz Research Institute for Environmental Medicine (IUF) 120-hour Neuronal Morphology Assay for Neurite Area (NPC4) (AID 2284305)
# Summary of the method: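 Endpoint at 120 h: automated imaging of TUBB3/Hoechst-stained differentiating human neural progenitor spheres, neurite area per neuron from skeletonization. DMSO solvent control, not above 0.1%, set the baseline; medium was half-replaced on day 3.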
# [18] = target: human Constitutive Androstane Receptor (CAR), NR1I3 (gene 9970) (UniProt Q14994); assay: NVS_NR_hCAR_Antagonist: NovaScreen (NVS) Nuclear Receptor Binding Assay for human Constitutive Androstane Receptor Antagonism (CAR) (AID 2283344)
# Summary of the method: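 Single 25 uM duplicate primary screen, with concentration-series follow-up on actives. Cell-free binding format run in antagonist mode, TR-FRET signal taken 1 h post-dose; activity is signal loss relative to DMSO.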
# [19] = target: human MET Proto-Oncogene, Receptor Tyrosine Kinase (MET), MET (gene 4233) (UniProt P08581); assay: NVS_ENZ_hMet: NovaScreen (NVS) Enzymatic Assay for human MET Proto-Oncogene, Receptor Tyrosine Kinase (MET) (AID 2283180)
# Summary of the method: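 Hits from a 25 uM duplicate screen were retested in concentration series up to 50 uM. Enzyme activity was measured by fluorescence after electrophoretic separation of product from substrate, 1 h after compound addition, relative to DMSO.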
compound,measurement,setting,value
C=CCC1=C(C)[C@@H](OC(=O)[C@@H]2[C@@H](C=C(C)C)C2(C)C)CC1=O,outcome,[1],inactive
COC[C@H](C)N(C(=O)CCl)c1c(C)csc1C,AC50,[2],inconclusive: 25 µM
COc1cc(Cl)c(OC)cc1Cl,AC50,[3],inconclusive: 25 µM
ClC1C(Cl)C(Cl)C(Cl)C(Cl)C1Cl (stereo not given),AC50,[4],inconclusive: 25 µM
CC1=C(C(=O)Nc2ccccc2)SCCO1,AC50,[5],inconclusive: 50 µM
c1ccc(NNc2ccccc2)cc1,outcome,[6],inactive
CCCCC(CC)COC(=O)c1ccc(C(=O)OCC(CC)CCCC)c(C(=O)OCC(CC)CCCC)c1 (stereo not given),outcome,[4],inactive
same,AC50,[7],inconclusive: 2.74 µM
same,outcome,[8],inactive
same,AC50,[9],inconclusive: 0.163 µM
same,outcome,[9],inactive
O=NN(c1ccccc1)c1ccccc1,outcome,[10],inactive
COC(=O)c1ccccc1S(=O)(=O)NC(=O)Nc1nc(C)nc(OC)n1,AC50,[3],inconclusive: 6.69 µM
Nc1ccc([N+](=O)[O-])cc1,AC50,[6],inconclusive: 25 µM
CCCC1COC(Cn2cncn2)(c2ccc(Cl)cc2Cl)O1 (stereo not given),AC50,[11],inconclusive: 0.0823 µM
same,AC50,[9],inconclusive: 0.195 µM
CC(C)N(Cc1ccccc1)C(=O)C(C)(C)C,AC50,[6],inconclusive: 2.12 µM
CSC(=O)c1c(C(F)F)nc(C(F)(F)F)c(C(=O)SC)c1CC(C)C,outcome,[12],inactive
same,AC50,[13],inconclusive: 99.5 µM
same,AC50,[11],inconclusive: 0.306 µM
same,AC50,[9],inconclusive: 100 µM
CCCCNC(=O)n1c(NC(=O)OC)nc2ccccc21,outcome,[7],inactive
same,AC50,[14],active: 15 µM
CC(C1CC1)C(O)(Cn1cncn1)c1ccc(Cl)cc1 (stereo not given),AC50,[1],active: 36.3 µM
same,outcome,[10],inactive
C#CC(C)(C)NC(=O)c1cc(Cl)cc(Cl)c1,outcome,[15],inactive
same,AC50,[16],inconclusive: 178 µM
same,outcome,[13],inactive
COC(=O)N(C(=O)N1CO[C@@]2(C(=O)OC)Cc3cc(Cl)ccc3C2=N1)c1ccc(OC(F)(F)F)cc1,AC50,[17],inconclusive: 1.59 µM
CCOc1cc(C(C)(C)C)ccc1C1COC(c2c(F)cccc2F)=N1 (stereo not given),outcome,[18],inactive
same,AC50,[5],inconclusive: 33 µM
same,AC50,[7],inconclusive: 33 µM
O=C(Nc1ccccc1)Nc1ccnc(Cl)c1,outcome,[3],inactive
same,AC50,[2],active: 14.5 µM
CCCCOC(=O)c1ccccc1C(=O)O,AC50,[18],inconclusive: 0.0684 µM
O=C(O)c1cc(Oc2ccc(C(F)(F)F)cc2Cl)ccc1[N+](=O)[O-],AC50,[19],inconclusive: 1.53 µM
COP(N)(=S)OC,outcome,[2],inactive
CC(C)C1(C)N=C(c2nc3ccccc3cc2C(=O)O)NC1=O (stereo not given),AC50,[18],inconclusive: 1.43 µM
Clc1ccc(C(c2ccc(Cl)cc2)C(Cl)(Cl)Cl)cc1,AC50,[12],active: 17.6 µM
same,AC50,[16],active: 100 µM
same,AC50,[11],inconclusive: 48.7 µM
Cc1ccc(OP(=O)(Oc2ccc(C)cc2)Oc2ccc(C)cc2)cc1 (tested in a mixture with another compound),outcome,[17],inactive
ClC1=C(Cl)[C@]2(Cl)[C@@H]3[C@H]4C[C@H]([C@@H]5O[C@H]45)[C@@H]3[C@@]1(Cl)C2(Cl)Cl,AC50,[10],active: 88.1 µM
CCCCN(CCCC)N=O,AC50,[4],inconclusive: 0.111 µM
same,AC50,[5],inconclusive: 50 µM

# Part of the list above in a different format.
compound	measurement	setting	value
CSC(=O)c1c(C(F)F)nc(C(F)(F)F)c(C(=O)SC)c1CC(C)C	AC50	[13]	inconclusive: 99.5 µM
same	AC50	[11]	inconclusive: 0.306 µM
